# Assay: LC-MS metabolomics assay of FOCM metabolite plasma levels, CRC patients vs healthy subjects
# Design: species or system human
# Conditions: Table 2
row,SMILES,circulating concentrations in CRC patients compared to healthy subjects
1,Cc1ncc(CO)c(CO)c1O [Pyridoxine],elevated
2,Cc1cc2nc3c(=O)[nH]c(=O)nc-3n(C[C@H](O)[C@H](O)[C@H](O)COP(=O)(O)O)c2cc1C [Flavin mononucleotide],significantly different

# From patent US20190101539A1, “METABOLOMIC BASED BIOMARKERS FOR COLON CANCER DETECTION” (UNIVERSITY OF SOUTHERN CALIFORNIA, priority 2015, published 2019)
